# At least one compound was matched to its structure with a doubt left.
# Tested on: WPMY-1 cells
# Assay: Uptake of PKH26-labeled large oncosomes (LO) by recipient cells, FACS / fluorescent imaging
# Format: cell-based, human
# Details: WPMY-1 cells treated with PKH26-labeled LO for 1 h at 37° C. in presence of the compound
# Procedure: As shown in FIG. 23 LO internalization differs between cells. LO isolation was performed using a filtration approach where the larger vesicles are retained by the filter and the smaller ones flow through. To test LO uptake, LO were labeled with a lipophilic dye, PKH26 and then used to treat target cells for 1 h at 37° C. LO uptake levels have been measured as the acquisition of fluorescence by target cells either by FACS or confocal imaging.
# LO isolation was preformed using a filtration approach where the larger vesicles are retained by the filter and the smaller ones flow through. To test LO uptake LO were labeled with a lipophilic dye, PKH26 and then used to treat target cells for 1 h at 37° C. or 4° C. in presence or absence of the indicated compounds. LO uptake levels were measured as the acquisition of fluorescence by target cells either by FACS and fluorescent imaging. Dynamin2 silencing has been performed by transient transfection of WPMY-1 cells with an oligos against Dynamin2.
compound,measurement,value
COC[C@H]1OC(=O)c2coc3c2[C@@]1(C)C1=C(C3=O)[C@@H]2CCC(=O)[C@@]2(C)C[C@H]1OC(C)=O [wortmannin],"LO uptake (internalization, mean fluorescent intensity)",partially reduced

# From US10254285B2, “Methods for detecting and treating cancer metastasis” (Cedars-Sinai Medical Center, priority 2013, dated 2019)
